Like-named read-outs stand apart in the source and are kept apart here. For at least one compound, name, drawing or mass did not settle the structure.
Tests used:
[1] = molecular target: T1, AMG-Z (AMG(1-526aa)::Z, Aspergillus niger glucoamylase fused to Z domain of Staphylococcus aureus protein A, SEQ ID NO 25) (Aspergillus niger, UniProt P69328); assay: Biacore SPR, binding of DAP AMG-Z to acarbose ligand (biotin-acarbose on SA chip)
T1 construct: made in house; host or cells: Aspergillus oryzae (transformant JaL1171 of host BECh2)

[2] = molecular target: T2, AMG-ZZ (AMG-Z-Z; AMG(1-526aa)::Z::Z, Aspergillus niger glucoamylase fused to two Z domains of Staphylococcus aureus protein A, SEQ ID NO 24) (Aspergillus niger, UniProt P69328, DEL72-72); assay: Biacore SPR, binding of DAP AMG-ZZ to acarbose ligand (biotin-acarbose on SA chip)
T2 construct: made in house; host or cells: Aspergillus oryzae (transformant JaL1168 of host BECh2)

[3] = read-out: KD,s, Table 7 (summary), DAP towards catching ligand
[4] = read-out: Ligand binding KD, Table 1 (summary, rounded)

## C[C@H]1O[C@H](O[C@H]2[C@H](O)[C@@H](O)[C@@H](O[C@H]3[C@H](O)[C@@H](O)C(O)O[C@@H]3CO)O[C@@H]2CO)[C@H](O)[C@@H](O)[C@@H]1N[C@H]1C=C(CO)[C@@H](O)[C@H](O)[C@H]1O (stereo partly shown) [Acarbose]
[1]; [3]
  Kd: 200 nM
[1]; [4]
  Kd: 200 nM
[2]; [3]
  Kd: 400 nM
[2]; [4]
  Kd: 400 nM
